Drawing on the supplement of paper PMC12819154, “High-throughput peptide-centric local stability assay extends protein–ligand identification to membrane proteins, tissues and bacteria” (Nature Structural & Molecular Biology, 2025), this text covers log2 fold change for eleven targets.

Sequences of proteins named here, by UniProt entry; tags and fusion partners are left off. A change or cut given only in a name is not applied to a line headed by its entry.
UniProt Q9NXW2: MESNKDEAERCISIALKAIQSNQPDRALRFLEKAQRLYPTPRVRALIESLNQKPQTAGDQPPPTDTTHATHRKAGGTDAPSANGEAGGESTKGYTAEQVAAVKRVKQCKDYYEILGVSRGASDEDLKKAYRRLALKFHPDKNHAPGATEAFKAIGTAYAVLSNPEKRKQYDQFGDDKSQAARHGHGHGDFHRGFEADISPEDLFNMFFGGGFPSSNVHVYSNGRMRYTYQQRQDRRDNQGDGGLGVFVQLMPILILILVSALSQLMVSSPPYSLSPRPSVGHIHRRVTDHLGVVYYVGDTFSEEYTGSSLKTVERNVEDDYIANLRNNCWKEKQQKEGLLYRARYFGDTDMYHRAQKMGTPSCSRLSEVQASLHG
UniProt Q9UBZ4: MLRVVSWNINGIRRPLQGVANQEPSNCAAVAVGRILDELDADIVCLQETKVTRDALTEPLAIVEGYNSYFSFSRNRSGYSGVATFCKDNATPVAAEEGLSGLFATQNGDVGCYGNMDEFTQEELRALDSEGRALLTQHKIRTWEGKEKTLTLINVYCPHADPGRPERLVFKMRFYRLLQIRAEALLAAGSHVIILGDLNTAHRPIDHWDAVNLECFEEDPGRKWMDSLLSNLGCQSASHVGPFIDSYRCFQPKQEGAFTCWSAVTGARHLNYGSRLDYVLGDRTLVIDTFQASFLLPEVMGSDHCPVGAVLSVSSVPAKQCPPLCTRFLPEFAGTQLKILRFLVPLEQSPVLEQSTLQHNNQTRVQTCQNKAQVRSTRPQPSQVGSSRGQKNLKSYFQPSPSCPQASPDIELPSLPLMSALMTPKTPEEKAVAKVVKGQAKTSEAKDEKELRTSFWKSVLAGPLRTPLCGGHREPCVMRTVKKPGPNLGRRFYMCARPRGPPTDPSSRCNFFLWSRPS
UniProt Q9NXF1: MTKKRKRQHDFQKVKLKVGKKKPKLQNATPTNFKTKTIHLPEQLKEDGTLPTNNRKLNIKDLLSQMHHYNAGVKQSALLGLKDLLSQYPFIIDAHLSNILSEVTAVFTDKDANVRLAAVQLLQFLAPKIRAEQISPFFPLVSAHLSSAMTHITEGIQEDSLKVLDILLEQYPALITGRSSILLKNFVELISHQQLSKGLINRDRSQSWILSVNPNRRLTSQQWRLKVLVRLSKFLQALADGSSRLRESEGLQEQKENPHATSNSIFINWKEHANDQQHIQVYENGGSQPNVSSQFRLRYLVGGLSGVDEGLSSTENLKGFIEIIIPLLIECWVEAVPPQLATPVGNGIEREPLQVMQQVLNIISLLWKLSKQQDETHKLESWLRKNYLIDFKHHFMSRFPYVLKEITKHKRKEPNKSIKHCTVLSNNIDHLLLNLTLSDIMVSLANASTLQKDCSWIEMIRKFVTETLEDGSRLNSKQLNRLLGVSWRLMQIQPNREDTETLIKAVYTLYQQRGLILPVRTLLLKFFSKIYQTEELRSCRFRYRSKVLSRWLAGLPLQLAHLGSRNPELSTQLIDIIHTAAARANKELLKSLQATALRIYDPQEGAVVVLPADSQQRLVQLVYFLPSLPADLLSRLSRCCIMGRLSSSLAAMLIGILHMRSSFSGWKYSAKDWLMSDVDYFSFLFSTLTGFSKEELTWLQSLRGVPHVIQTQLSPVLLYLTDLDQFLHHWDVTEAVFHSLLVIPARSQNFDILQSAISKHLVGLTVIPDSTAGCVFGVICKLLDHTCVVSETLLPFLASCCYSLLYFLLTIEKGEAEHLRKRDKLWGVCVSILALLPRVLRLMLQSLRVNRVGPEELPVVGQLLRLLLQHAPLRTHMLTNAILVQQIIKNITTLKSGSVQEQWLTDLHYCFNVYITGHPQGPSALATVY
UniProt Q9NXL9: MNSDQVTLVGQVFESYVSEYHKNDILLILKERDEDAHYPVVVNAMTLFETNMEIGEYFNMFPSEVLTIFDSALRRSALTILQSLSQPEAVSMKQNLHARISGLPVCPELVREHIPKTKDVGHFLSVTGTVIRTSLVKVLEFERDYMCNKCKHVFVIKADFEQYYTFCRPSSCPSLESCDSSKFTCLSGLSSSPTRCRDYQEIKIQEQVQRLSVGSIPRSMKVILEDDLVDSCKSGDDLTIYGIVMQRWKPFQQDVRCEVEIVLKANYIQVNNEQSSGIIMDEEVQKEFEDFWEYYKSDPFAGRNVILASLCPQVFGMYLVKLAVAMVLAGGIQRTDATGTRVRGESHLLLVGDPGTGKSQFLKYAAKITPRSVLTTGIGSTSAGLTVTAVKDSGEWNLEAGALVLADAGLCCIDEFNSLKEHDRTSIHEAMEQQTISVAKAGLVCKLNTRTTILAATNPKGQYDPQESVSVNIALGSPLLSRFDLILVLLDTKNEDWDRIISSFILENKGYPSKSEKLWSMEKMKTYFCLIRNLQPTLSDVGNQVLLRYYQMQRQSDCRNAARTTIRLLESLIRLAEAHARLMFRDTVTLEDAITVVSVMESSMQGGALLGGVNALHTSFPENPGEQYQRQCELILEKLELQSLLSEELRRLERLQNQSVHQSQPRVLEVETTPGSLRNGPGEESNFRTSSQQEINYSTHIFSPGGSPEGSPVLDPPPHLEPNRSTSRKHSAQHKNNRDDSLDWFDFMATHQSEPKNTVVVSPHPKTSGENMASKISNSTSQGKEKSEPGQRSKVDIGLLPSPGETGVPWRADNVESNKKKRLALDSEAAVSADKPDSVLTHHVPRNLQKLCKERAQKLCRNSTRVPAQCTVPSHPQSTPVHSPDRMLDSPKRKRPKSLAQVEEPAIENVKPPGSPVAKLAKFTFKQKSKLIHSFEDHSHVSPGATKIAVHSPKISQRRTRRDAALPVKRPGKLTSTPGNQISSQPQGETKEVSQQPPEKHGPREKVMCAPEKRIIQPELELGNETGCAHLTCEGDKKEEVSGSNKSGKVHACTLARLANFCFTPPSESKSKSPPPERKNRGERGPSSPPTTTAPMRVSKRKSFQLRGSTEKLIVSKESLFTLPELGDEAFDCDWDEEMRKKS
UniProt Q9NY61: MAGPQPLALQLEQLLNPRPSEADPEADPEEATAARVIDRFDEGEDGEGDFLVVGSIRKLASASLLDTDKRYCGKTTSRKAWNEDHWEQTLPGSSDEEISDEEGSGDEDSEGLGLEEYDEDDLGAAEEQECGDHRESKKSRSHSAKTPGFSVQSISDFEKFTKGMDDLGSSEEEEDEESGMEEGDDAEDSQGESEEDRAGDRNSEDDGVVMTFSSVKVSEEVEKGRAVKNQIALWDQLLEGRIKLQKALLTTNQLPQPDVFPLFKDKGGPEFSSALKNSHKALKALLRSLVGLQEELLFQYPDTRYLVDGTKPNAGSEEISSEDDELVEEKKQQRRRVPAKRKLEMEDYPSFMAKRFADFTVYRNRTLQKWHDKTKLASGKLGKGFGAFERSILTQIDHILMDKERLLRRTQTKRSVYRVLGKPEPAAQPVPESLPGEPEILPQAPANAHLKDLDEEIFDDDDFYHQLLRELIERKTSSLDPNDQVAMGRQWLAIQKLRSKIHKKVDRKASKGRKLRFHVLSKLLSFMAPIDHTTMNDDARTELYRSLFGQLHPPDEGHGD
UniProt Q9NYP3: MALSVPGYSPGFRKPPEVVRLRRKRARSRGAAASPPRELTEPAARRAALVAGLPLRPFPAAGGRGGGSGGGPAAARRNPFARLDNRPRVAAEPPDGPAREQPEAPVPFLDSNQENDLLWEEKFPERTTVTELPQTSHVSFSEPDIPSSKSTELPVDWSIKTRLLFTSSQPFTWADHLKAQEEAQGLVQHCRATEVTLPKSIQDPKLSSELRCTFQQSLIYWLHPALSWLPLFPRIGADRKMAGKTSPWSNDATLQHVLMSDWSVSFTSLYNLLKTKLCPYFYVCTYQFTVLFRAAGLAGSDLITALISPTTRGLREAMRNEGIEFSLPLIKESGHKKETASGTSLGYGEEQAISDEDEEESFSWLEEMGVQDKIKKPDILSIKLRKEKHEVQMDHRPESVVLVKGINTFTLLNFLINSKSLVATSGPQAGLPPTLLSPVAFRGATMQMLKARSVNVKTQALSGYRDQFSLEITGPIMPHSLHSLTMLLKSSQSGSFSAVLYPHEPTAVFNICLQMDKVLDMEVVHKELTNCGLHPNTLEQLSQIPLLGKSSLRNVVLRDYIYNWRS
UniProt Q9P2K6: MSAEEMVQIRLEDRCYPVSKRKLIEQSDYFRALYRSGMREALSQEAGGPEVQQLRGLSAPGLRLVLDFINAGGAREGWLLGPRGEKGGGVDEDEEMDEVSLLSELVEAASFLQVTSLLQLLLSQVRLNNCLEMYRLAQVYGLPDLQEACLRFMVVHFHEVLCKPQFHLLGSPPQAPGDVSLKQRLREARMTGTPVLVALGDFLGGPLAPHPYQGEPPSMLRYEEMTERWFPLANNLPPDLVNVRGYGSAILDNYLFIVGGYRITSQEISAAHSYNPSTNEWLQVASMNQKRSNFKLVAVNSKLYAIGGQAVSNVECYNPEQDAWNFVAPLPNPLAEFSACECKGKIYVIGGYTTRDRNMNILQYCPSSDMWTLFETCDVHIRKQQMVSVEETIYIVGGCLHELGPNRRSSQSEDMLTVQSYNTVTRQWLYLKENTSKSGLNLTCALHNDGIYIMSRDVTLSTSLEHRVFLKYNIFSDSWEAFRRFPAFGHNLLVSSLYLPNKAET
UniProt Q9NYV6: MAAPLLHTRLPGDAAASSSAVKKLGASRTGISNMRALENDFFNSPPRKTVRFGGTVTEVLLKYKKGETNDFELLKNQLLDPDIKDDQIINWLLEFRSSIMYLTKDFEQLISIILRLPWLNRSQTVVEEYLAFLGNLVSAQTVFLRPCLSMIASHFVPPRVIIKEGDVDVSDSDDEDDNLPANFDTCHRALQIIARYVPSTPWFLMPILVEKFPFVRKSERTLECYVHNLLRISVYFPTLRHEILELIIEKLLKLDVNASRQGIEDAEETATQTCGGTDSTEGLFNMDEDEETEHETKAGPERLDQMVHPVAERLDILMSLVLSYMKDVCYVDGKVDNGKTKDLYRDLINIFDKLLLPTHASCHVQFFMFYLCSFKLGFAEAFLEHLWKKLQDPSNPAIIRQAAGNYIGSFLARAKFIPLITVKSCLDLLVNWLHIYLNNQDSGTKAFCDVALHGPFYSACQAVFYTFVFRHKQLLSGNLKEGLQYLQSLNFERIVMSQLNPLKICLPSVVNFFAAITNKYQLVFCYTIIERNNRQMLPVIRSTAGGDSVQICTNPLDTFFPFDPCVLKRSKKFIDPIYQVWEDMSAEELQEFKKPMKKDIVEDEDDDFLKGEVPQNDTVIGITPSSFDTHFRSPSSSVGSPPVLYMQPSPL
UniProt Q9NZ32, whole entry: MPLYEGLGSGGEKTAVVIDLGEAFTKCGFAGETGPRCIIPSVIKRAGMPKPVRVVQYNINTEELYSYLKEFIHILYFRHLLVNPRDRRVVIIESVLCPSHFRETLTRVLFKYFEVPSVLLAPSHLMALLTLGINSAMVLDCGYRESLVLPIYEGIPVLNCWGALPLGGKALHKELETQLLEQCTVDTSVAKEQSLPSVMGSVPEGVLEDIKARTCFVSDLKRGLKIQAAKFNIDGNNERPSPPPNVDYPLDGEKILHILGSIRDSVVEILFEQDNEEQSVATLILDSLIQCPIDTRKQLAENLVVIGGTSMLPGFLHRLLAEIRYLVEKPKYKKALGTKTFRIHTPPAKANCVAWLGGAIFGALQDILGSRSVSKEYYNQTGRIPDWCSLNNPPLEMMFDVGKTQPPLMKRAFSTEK
UniProt Q9NZJ0: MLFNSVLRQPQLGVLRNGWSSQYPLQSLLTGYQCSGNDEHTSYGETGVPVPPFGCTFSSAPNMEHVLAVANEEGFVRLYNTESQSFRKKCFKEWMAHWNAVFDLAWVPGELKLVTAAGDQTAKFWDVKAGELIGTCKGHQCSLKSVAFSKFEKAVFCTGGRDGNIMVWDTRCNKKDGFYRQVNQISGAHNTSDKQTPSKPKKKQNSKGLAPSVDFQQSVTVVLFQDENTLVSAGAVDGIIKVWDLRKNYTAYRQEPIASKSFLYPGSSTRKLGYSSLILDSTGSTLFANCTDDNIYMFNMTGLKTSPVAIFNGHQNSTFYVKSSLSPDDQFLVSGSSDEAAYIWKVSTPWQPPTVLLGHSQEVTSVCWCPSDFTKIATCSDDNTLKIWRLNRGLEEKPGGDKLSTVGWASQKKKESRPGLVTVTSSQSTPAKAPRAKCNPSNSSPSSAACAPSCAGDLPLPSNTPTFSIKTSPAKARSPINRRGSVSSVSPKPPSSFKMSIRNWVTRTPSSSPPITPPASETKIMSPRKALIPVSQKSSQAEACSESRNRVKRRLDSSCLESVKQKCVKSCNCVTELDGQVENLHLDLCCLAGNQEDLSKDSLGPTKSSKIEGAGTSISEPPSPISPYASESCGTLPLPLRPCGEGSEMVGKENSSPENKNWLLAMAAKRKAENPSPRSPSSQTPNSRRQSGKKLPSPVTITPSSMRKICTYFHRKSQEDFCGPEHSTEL

This is one part of the list. Small differences around the control level are noise.

Compound in this experiment: Cc1nc(Nc2ncc(C(=O)Nc3c(C)cccc3Cl)s2)cc(N2CCN(CCO)CC2)n1 [dasatinib]
Kind of experiment: log2 fold change of tryptic peptide abundance, ligand vs vehicle (limited proteolysis) (log2 ratio); higher = more trypsin-susceptible (destabilized). The note with it: ligand concentration: 5 uM; sample: K562 cleared lysate.
For the target “DNAJB12 (peptide sequence: GYTAEQVAAVKR, peptide start residue: 93) (UniProt Q9NXW2)”, the log2 fold change worked out at 0.203.

Consider “APEX2 (peptide sequence: STRPQPSQVGSSR, peptide start residue: 376) (UniProt Q9UBZ4)”, for which the log2 fold change was determined as 0.0208.

As for “TEX10 (peptide sequence: EDGTLPTNNR, peptide start residue: 46) (UniProt Q9NXF1)”, the log2 fold change is -0.164.

As for “MCM9 (peptide sequence: NGPGEESNFR, peptide start residue: 679) (UniProt Q9NXL9)”, the log2 fold change is -0.289.

For “AATF (peptide sequence: SILTQIDHILMDKER, peptide start residue: 391) (UniProt Q9NY61)”, the log2 fold change is -0.417.

“DONSON (peptide sequence: VAAEPPDGPAR, peptide start residue: 89) (UniProt Q9NYP3)”: the log2 fold change was 0.121.

As for “UniProt Q9P2K6 (peptide sequence: LVLDFINAGGAR, peptide start residue: 64)”, the log2 fold change was -0.376.

For the target “RRN3 (peptide sequence: FGGTVTEVLLK, peptide start residue: 52) (UniProt Q9NYV6)”, the log2 fold change is -0.177.

Consider “UniProt Q9P278 (peptide sequence: EQLPKYQYTR, peptide start residue: 121)”, for which the log2 fold change is -0.319.

Turning to “ACTR10 (peptide sequence: CGFAGETGPR, peptide start residue: 27) (UniProt Q9NZ32)”, the log2 fold change came out at 0.655.

For “DTL (peptide sequence: MLFNSVLR, peptide start residue: 1) (UniProt Q9NZJ0)”, the log2 fold change came out at 0.295.
